# Assay results published in the supplement of paper PMC8728848.
# This is one part of the list.
# B1: SLLPI (Homo sapiens), Q8IXA5 (protein)
# chain: MVSALRGAPLIRVHSSPVSSPSVSGPRRLVSCLSSQSSALSQSGGGSTSAAGIEARSRALRRRWCPAGIMLLALVCLLSCLLPSSEAKLYGRCELARVLHDFGLDGYRGYSLADWVCLAYFTSGFNAAALDYEADGSTNNGIFQINSRRWCSNLTPNVPNVCRMYCSDLLNPNLKDTVICAMKITQEPQGLGYWEAWRHHCQGKDLTEWVDGCDF
# Legend:
# Assay in all cases: glycan array binding signal (z-score within array); higher = stronger binding
# Conditions in all cases: glycan notation: IUPAC condensed, linker removed
# [1] = target: GlcNAc(b1-4)[GlcNAc(b1-6)]GalNAc
# Procedure, shortened: (§1)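 Arrays were curated from the Consortium for Functional Glycomics database, 3228 in total, and kept only where the protein sequence was available. Binding is expressed as a within-array Z-score. This score was averaged across arrays of the same protein sequence at different concentrations or buffers and across linkers, and negative values can be read as non-binding.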
# [2] = target: GlcNAc(b1-6)Gal(b1-4)GlcNAc
# Procedure, shortened: as §1
# [3] = target: GlcNAc(b1-6)GalNAc
# Procedure, shortened: as §1
# [4] = target: GlcNAc3Prop(b1-4)GlcNAc
# Procedure, shortened: as §1
# [5] = target: Kdn(a2-3)Gal(b1-3)GlcNAc
# Procedure, shortened: as §1
# [6] = target: Kdn(a2-3)Gal(b1-4)GlcNAc
# Procedure, shortened: as §1
# [7] = target: Man(a1-2)Man(a1-2)Man(a1-3)Man
# Procedure, shortened: as §1
# [8] = target: Man(a1-2)Man(a1-2)Man(a1-6)[Man(a1-3)]Man
# Procedure, shortened: as §1
# [9] = target: Man(a1-2)Man(a1-3)Man
# Procedure, shortened: as §1
# [10] = target: Man(a1-2)Man(a1-3)[Man(a1-2)Man(a1-6)]Man
# Procedure, shortened: as §1
# [11] = target: Man(a1-2)Man(a1-3)[Man(a1-2)Man(a1-6)]Man(a1-6)[Man(a1-2)Man(a1-2)Man(a1-3)]Man
# Procedure, shortened: as §1
# [12] = target: Man(a1-2)Man(a1-3)[Man(a1-2)Man(a1-6)]Man(a1-6)[Man(a1-2)Man(a1-2)Man(a1-3)]Man(b1-4)GlcNAc(b1-4)GlcNAc
# Procedure, shortened: as §1
# [13] = target: Man(a1-2)Man(a1-3)[Man(a1-6)]Man(a1-6)[Man(a1-2)Man(a1-3)]Man(b1-4)GlcNAc(b1-4)GlcNAc
# Procedure, shortened: as §1
# [14] = target: Man(a1-2)Man(a1-6)[Man(a1-3)]Man(a1-6)[Man(a1-2)Man(a1-2)Man(a1-3)]Man
# Procedure, shortened: as §1
# [15] = target: Man(a1-2)Man(a1-6)[Man(a1-3)]Man(a1-6)[Man(a1-2)Man(a1-2)Man(a1-3)]Man(b1-4)GlcNAc(b1-4)GlcNAc
# Procedure, shortened: as §1
# [16] = target: Man(a1-3)[Man(a1-6)]Man
# Procedure, shortened: as §1
# [17] = target: Man(a1-3)[Man(a1-6)]Man(a1-6)[Man(a1-2)Man(a1-3)]Man(b1-4)GlcNAc(b1-4)GlcNAc
# Procedure, shortened: as §1
# [18] = target: Man(a1-3)[Man(a1-6)]Man(a1-6)[Man(a1-3)]Man
# Procedure, shortened: as §1
# [19] = target: Man(a1-3)[Man(a1-6)]Man(a1-6)[Man(a1-3)]Man(b1-4)GlcNAc(b1-4)GlcNAc
# Procedure, shortened: as §1
# [20] = target: Man(a1-3)[Man(a1-6)]Man(b1-4)GlcNAc(b1-4)GlcNAc
# Procedure, shortened: as §1
# [21] = target: Man(a1-6)Man
# Procedure, shortened: as §1
# [22] = target: Man(b1-4)GlcNAc
# Procedure, shortened: as §1
# [23] = target: Neu5Ac(a2-3)Gal
# Procedure, shortened: as §1
# [24] = target: Neu5Ac(a2-3)Gal(b1-3)GalNAc
# Procedure, shortened: as §1
# [25] = target: Neu5Ac(a2-3)Gal(b1-3)GalNAc(b1-3)Gal(a1-4)Gal(b1-4)Glc
# Procedure, shortened: as §1
# [26] = target: Neu5Ac(a2-3)Gal(b1-3)GalNAc(b1-3)Gal(b1-4)GlcNAc
# Procedure, shortened: as §1
# [27] = target: Neu5Ac(a2-3)Gal(b1-3)GalNAc(b1-4)[Neu5Ac(a2-3)]Gal(b1-4)Glc
# Procedure, shortened: as §1
# [28] = target: Neu5Ac(a2-3)Gal(b1-3)GalNAc6S
# Procedure, shortened: as §1
# [29] = target: Neu5Ac(a2-3)Gal(b1-3)GlcNAc
# Procedure, shortened: as §1
# [30] = target: Neu5Ac(a2-3)Gal(b1-3)GlcNAc(b1-3)Gal(b1-3)GlcNAc
# Procedure, shortened: as §1
# [31] = target: Neu5Ac(a2-3)Gal(b1-3)GlcNAc6S
# Procedure, shortened: as §1
# [32] = target: Neu5Ac(a2-3)Gal(b1-3)[Fuc(a1-4)]GlcNAc
# Procedure, shortened: as §1
# [33] = target: Neu5Ac(a2-3)Gal(b1-3)[Fuc(a1-4)]GlcNAc(b1-3)Gal(b1-4)[Fuc(a1-3)]GlcNAc
# Procedure, shortened: as §1
# [34] = target: Neu5Ac(a2-3)Gal(b1-3)[Neu5Ac(a2-3)Gal(b1-4)]GlcNAc
# Procedure, shortened: as §1
# [35] = target: Neu5Ac(a2-3)Gal(b1-3)[Neu5Ac(a2-6)]GalNAc
# Procedure, shortened: as §1
# [36] = target: Neu5Ac(a2-3)Gal(b1-4)Glc
# Procedure, shortened: as §1
# [37] = target: Neu5Ac(a2-3)Gal(b1-4)GlcNAc
# Procedure, shortened: as §1
# [38] = target: Neu5Ac(a2-3)Gal(b1-4)GlcNAc(b1-2)Man(a1-3)[GlcNAc(b1-2)Man(b1-4)GlcNAc(b1-2)Man(a1-6)]Man(b1-4)GlcNAc(b1-4)GlcNAc
# Procedure, shortened: as §1
# [39] = target: Neu5Ac(a2-3)Gal(b1-4)GlcNAc(b1-2)Man(a1-3)[Neu5Ac(a2-6)Gal(b1-4)GlcNAc(b1-2)Man(a1-6)]Man(b1-4)GlcNAc(b1-4)GlcNAc
# Procedure, shortened: as §1
# [40] = target: Neu5Ac(a2-3)Gal(b1-4)GlcNAc(b1-3)Gal(b1-3)GlcNAc
# Procedure, shortened: as §1
# [41] = target: Neu5Ac(a2-3)Gal(b1-4)GlcNAc(b1-3)Gal(b1-4)GlcNAc
# Procedure, shortened: as §1
# [42] = target: Neu5Ac(a2-3)Gal(b1-4)GlcNAc(b1-3)Gal(b1-4)GlcNAc(b1-3)Gal(b1-4)GlcNAc
# Procedure, shortened: as §1
# [43] = target: Neu5Ac(a2-3)Gal(b1-4)GlcNAc(b1-3)Gal(b1-4)[Fuc(a1-3)]GlcNAc
# Procedure, shortened: as §1
# [44] = target: Neu5Ac(a2-3)Gal(b1-4)GlcNAc(b1-6)[Gal(b1-3)]GalNAc
# Procedure, shortened: as §1
# [45] = target: Neu5Ac(a2-3)Gal(b1-4)GlcNAc(b1-6)[Neu5Ac(a2-3)Gal(b1-3)]GalNAc
# Procedure, shortened: as §1
binder,measurement,setting,value
B1,glycan array binding signal (z-score),[1],-0.212
same,glycan array binding signal (z-score),[2],0.165
same,glycan array binding signal (z-score),[3],-0.657
same,glycan array binding signal (z-score),[4],-0.331
same,glycan array binding signal (z-score),[5],-0.117
same,glycan array binding signal (z-score),[6],0.651
same,glycan array binding signal (z-score),[7],3.65
same,glycan array binding signal (z-score),[8],-0.429
same,glycan array binding signal (z-score),[9],-0.222
same,glycan array binding signal (z-score),[10],-0.206
same,glycan array binding signal (z-score),[11],-0.213
same,glycan array binding signal (z-score),[12],0.388
same,glycan array binding signal (z-score),[13],-0.182
same,glycan array binding signal (z-score),[14],-0.461
same,glycan array binding signal (z-score),[15],-0.312
same,glycan array binding signal (z-score),[16],-0.59
same,glycan array binding signal (z-score),[17],1.02
same,glycan array binding signal (z-score),[18],-0.191
same,glycan array binding signal (z-score),[19],-0.496
same,glycan array binding signal (z-score),[20],-0.451
same,glycan array binding signal (z-score),[21],-0.129
same,glycan array binding signal (z-score),[22],-0.566
same,glycan array binding signal (z-score),[23],-0.08
same,glycan array binding signal (z-score),[24],-0.268
same,glycan array binding signal (z-score),[25],-0.643
same,glycan array binding signal (z-score),[26],0.146
same,glycan array binding signal (z-score),[27],-0.039
same,glycan array binding signal (z-score),[28],0.202
same,glycan array binding signal (z-score),[29],-0.213
same,glycan array binding signal (z-score),[30],-0.285
same,glycan array binding signal (z-score),[31],0.676
same,glycan array binding signal (z-score),[32],-0.532
same,glycan array binding signal (z-score),[33],0.179
same,glycan array binding signal (z-score),[34],0.189
same,glycan array binding signal (z-score),[35],-0.223
same,glycan array binding signal (z-score),[36],0.111
same,glycan array binding signal (z-score),[37],0
same,glycan array binding signal (z-score),[38],4.44
same,glycan array binding signal (z-score),[39],-0.461
same,glycan array binding signal (z-score),[40],-0.278
same,glycan array binding signal (z-score),[41],-0.432
same,glycan array binding signal (z-score),[42],0.799
same,glycan array binding signal (z-score),[43],1.29
same,glycan array binding signal (z-score),[44],-0.63
same,glycan array binding signal (z-score),[45],0.169

# Shown bar-delimited: part of the list above.
binder | measurement | setting | value
B1 | glycan array binding signal (z-score) | [5] | -0.117
same | glycan array binding signal (z-score) | [6] | 0.651
same | glycan array binding signal (z-score) | [7] | 3.65
same | glycan array binding signal (z-score) | [8] | -0.429
